From publication PMC12042439
These are yes or no findings as the source states them, for the method shown. Binding seen in cells or lysates may run through a third protein. Some binding calls cover weakened binding; strength is not graded here.

By UniProt entry, the sequences of proteins in these tests, tags left out. Residues count along the entry.
UniProt O08859, residues 18-275: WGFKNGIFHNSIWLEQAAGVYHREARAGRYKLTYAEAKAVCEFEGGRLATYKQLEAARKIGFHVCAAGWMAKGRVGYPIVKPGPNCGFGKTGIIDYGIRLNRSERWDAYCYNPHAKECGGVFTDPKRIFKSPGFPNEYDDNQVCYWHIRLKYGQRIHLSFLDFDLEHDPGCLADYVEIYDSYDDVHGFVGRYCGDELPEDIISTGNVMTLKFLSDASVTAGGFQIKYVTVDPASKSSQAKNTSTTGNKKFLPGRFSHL

Target: T1, Pou class 2 homeobox 3 (Pou2f3), endogenous in MODE-K cells (mouse (endogenous in MODE-K)) (UniProt P31362)
T1 sequence: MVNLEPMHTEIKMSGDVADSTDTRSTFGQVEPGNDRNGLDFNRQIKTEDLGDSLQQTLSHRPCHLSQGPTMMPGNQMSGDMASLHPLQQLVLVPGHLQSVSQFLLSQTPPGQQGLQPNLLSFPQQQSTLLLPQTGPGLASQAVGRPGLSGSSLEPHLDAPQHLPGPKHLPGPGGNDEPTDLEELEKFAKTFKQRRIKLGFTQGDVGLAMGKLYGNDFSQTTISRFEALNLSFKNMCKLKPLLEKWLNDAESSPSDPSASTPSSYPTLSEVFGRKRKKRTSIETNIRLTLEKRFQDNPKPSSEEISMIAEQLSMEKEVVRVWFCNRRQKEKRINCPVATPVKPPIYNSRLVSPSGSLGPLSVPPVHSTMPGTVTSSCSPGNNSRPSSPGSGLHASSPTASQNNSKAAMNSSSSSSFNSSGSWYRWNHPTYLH
Assay: co-IP; MODE-K cells, empty vector transfected (NC) or TSG-6-overexpressed (OE); mouse IgG as negative control; which protein was precipitated is not told

binding	Substance
binds	TSG-6 overexpressed in MODE-K cells (OE) (from UniProt O08859 18-275)
binds	Tumor necrosis factor α stimulated gene 6 (TSG-6), endogenous in MODE-K cells (from UniProt O08859 18-275)
